# Assay results from the supplement of paper PMC10338343.
# ± gives the standard deviation. Some of the results follow. Many entries were measured with a wide error.
# Tested on: EfPiwi piRISC loaded with L1MC piRNA (26 nt)
# Assay: pre-steady-state target cleavage rate (min^-1); guide: L1MC piRNA 5'p-UAACUAAAUACUAUGCAAGCUGUAGG; MIWI and MILI are mouse PIWI proteins and EfPiwi is from a freshwater sponge; tags in brackets are library labels; higher = faster piRNA-guided slicing of the target
# Conditions: auxiliary factor: 500 nM Ephydatia muelleri Gtsf1
# Procedure: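 Cleave-'n-Seq: a library of target RNAs (target site in constant flanks) at […] was incubated with 1 nM active freshwater sponge Ephydatia fluviatilis Piwi piRISC (synthetic 5'-monophosphorylated piRNA guide) with or without 500 nM EmGtsf1 at 33 °C for 1 min to 16 h. Uncleaved targets were sequenced and the pooled three trials fitted to a burst-and-steady-state model to give the pre-steady-state cleavage rate (min^-1). Sequence is the target site only. Fits with R² ≤ 0 are excluded.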
row,Sequence,pre-steady-state target cleavage rate
1,UCCUGGUACAGGUUGCAUAGUAUUUUGUUA,0.00117 ± 0.0067
2,UCCUGGAUGAGCGUUGCAUAGUAUUUAGUUA,0.00582 ± 0.0034
3,UCCUGGAACAGGAAGCAUAGUAUUUACAAA,0.000362 ± 0.011
4,UCCUGGAUGAGCUUGCAUCAGUAUUUAGUUA,0.000392 ± 0.0092
5,UCCUGGAUGUCGAACGCUAGUAUUUAGUUA,0.000623 ± 0.0074
6,UCCUGGAACAGCUUGCAUAGUAUUAUGAAA,0.00336 ± 0.0021
7,UCCUGGUACAGCUUGCAAAGUAUUUAGUAA,0.00304 ± 0.0024
8,UCCUGCUACAGCUUGCAUACAAUUUAGUAA,0.00123 ± 0.0033
9,UCCUGGAACAGCUUGCUUAGUAUUUAGUAA,0.00393 ± 0.0022
10,UCCUGGAAGAGCUUGCAUUGUAUUUAGUUA,0.0104 ± 0.0029
11,UCCUGCUACAGCUUGUCAUAGUAUUUAGUUA,0.0131 ± 0.0037
12,UCCUGGAUGUCGUUCAUAGUAUUUAGUUA,0.000886 ± 0.0062
13,UCCUGGAUGAGCUUGCAUAGAAAUUAGUUA,0.000617 ± 0.006
14,UCCUGCUACACGUUGCAUAGUAUUUAGUAA,0.00458 ± 0.0025
15,UCCUGGUACAGCUUGCAUAGUAUCUUAGUUA,0.00588 ± 0.0027
16,UCCUGGAUGUGCUUGCAUAGUAUUUAGCUA,0.00363 ± 0.0021
17,UCCUGGAACAGCUUGCUAAGUAUUUAGAAA,0.00076 ± 0.0046
18,UCCUCCUAGAGCUAGCAUAGUAUUUAGUUA,0.0136 ± 0.0043
19,UCCUGGAUGAGAUUGCAUAGUAUUUAGUUA,0.00463 ± 0.0025
20,UCCUCCUACAGCUUGCAUACUAUUUUCAAA,0.00199 ± 0.0038
21,UCCUGCUACAGCUUGCAGUAGUAUUUAGUUA,0.0051 ± 0.0024
22,UCCUGGUACAGCUUGCAUUCUAUUUAGUAA,0.000193 ± 0.037
23,UCCUGCAACAGCUUGCUUAGUAUUUAGUUA,0.0143 ± 0.0036

# Same assay, conditions: auxiliary factor: none (no Gtsf1)
row,Sequence,pre-steady-state target cleavage rate
1,UCCUGGAUGAGCGUUGCAUAGUAUUUAGUUA,0.00126 ± 0.0066
2,UCCUGGAUGAGCUUGCAUCAGUAUUUAGUUA,< 0.0001
3,UCCUGGAACAGCUUGCAUAGUAUUAUGAAA,< 0.0001
4,UCCUGGUACAGCUUGCAAAGUAUUUAGUAA,0.00117 ± 0.0077
5,UCCUGCUACAGCUUGCAUACAAUUUAGUAA,0.000395 ± 0.017
6,UCCUGGAAGAGCUUGCAUUGUAUUUAGUUA,0.00292 ± 0.004
7,UCCUGCUACAGCUUGUCAUAGUAUUUAGUUA,0.00109 ± 0.0063
8,UCCUGGAUGUCGUUCAUAGUAUUUAGUUA,< 0.0001
9,UCCUGGUACAGCUUGGAUAGUAUAUAGUUA,0.00132 ± 0.0085
10,UCCUGGAUGAGCUUGCAUAGAAAUUAGUUA,0.000525 ± 0.015
11,UCCUGGUACAGCUUGCAUAGUAUCUUAGUUA,0.000403 ± 0.042
12,UCCUGGAUGUGCUUGCAUAGUAUUUAGCUA,0.000457 ± 0.019
13,UCCUGGAACAGCUUGCUAAGUAUUUAGAAA,0.000376 ± 0.015
14,UCCUGGAUGAGAUUGCAUAGUAUUUAGUUA,0.000748 ± 0.013
15,UCCUCCUACAGCUUGCAUACUAUUUUCAAA,0.000335 ± 0.016
16,UCCUGCUACAGCUUGCAGUAGUAUUUAGUUA,0.00108 ± 0.0072
17,UCCUGCAACAGCUUGCUUAGUAUUUAGUUA,0.00117 ± 0.007
